PubChem BioAssay AID743454, Peter MacCallum Cancer Centre, 2014
The deposit covers about 18,000 reagents; shown is a random part of them. In the full data, 450 (2.5%) were called active. 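Single biological run; no consistent viability z cut-off exists, so the class columns, not z-scores, define the calls.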 Reagent sequences are not shown.

- Assay: 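Search for knock-downs that restore vorinostat killing in resistant colon cancer cells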 (primary screen)
- Cell system: human HCT116-VR colon cancer cells, selected for vorinostat resistance
- Reagents: siRNA pool against human genes, 40 nM siRNA pool
- Timing: vorinostat for 24 h, read-out about 72 h after transfection
- Treatment: vorinostat at 2.5 µM final
- Measurement: 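Cell viability by CellTiter-Fluor and caspase 3/7 activity by luminescence, each scaled to mock wells per plate, duplicates averaged, then robust z-scored over all plates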
- Scale: viability robust z-score: higher = more viable cells than screen typical; caspase robust z-score: higher = more caspase 3/7 activity than screen typical
- Active means: 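Hits are knock-downs in viability class RV1/RV2 or caspase class CA1/CA2, excluding ones that killed cells in the no-drug cell-count arm; hits then retested with single siRNAs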

NECTIN3 (nectin cell adhesion molecule 3): viability hit class = no change; caspase hit class = no change; viability robust z-score = 0.06; caspase robust z-score = -0.38; Outcome = inactive
NCOA3 (nuclear receptor coactivator 3): viability hit class = no change; caspase hit class = no change; viability robust z-score = 0.49; caspase robust z-score = -0.68; Outcome = inactive
PNO1 (partner of NOB1 homolog): viability hit class = no change; caspase hit class = no change; viability robust z-score = -2.05; caspase robust z-score = -1.24; Outcome = inactive
PTCHD4 (patched domain containing 4): viability hit class = no change; caspase hit class = no change; viability robust z-score = 0.18; caspase robust z-score = 2.19; Outcome = inactive
SMAGP (small cell adhesion glycoprotein): viability hit class = no change; caspase hit class = no change; viability robust z-score = -0.42; caspase robust z-score = -0.76; Outcome = inactive
MID1IP1 (MID1 interacting protein 1): viability hit class = no change; caspase hit class = no change; viability robust z-score = -0.03; caspase robust z-score = -0.54; Outcome = inactive
MED20 (mediator complex subunit 20): viability hit class = no change; caspase hit class = CA2 (caspase activation); viability robust z-score = -0.12; caspase robust z-score = 5.85; Outcome = active
LCLAT1 (lysocardiolipin acyltransferase 1): viability hit class = no change; caspase hit class = no change; viability robust z-score = 0.6; caspase robust z-score = -0.72; Outcome = inactive
GIGYF1 (GRB10 interacting GYF protein 1): viability hit class = no change; caspase hit class = no change; viability robust z-score = -0.26; caspase robust z-score = -0.57; Outcome = inactive
CD160 (CD160 molecule): viability hit class = no change; caspase hit class = no change; viability robust z-score = -1.29; caspase robust z-score = -0.56; Outcome = inactive
CLCN2 (chloride voltage-gated channel 2): viability hit class = no change; caspase hit class = no change; viability robust z-score = 0.4; caspase robust z-score = 0.44; Outcome = inactive
CFAP119 (cilia and flagella associated protein 119): viability hit class = no change; caspase hit class = no change; viability robust z-score = 0.94; caspase robust z-score = 0.94; Outcome = inactive
ZNRF1 (zinc and ring finger 1): viability hit class = no change; caspase hit class = no change; viability robust z-score = -0.56; caspase robust z-score = -1.02; Outcome = inactive
HMGN2P46: viability hit class = no change; caspase hit class = no change; viability robust z-score = -0.73; caspase robust z-score = 0.6; Outcome = inactive
B3GALT1 (beta-1,3-galactosyltransferase 1): viability hit class = no change; caspase hit class = no change; viability robust z-score = -0.46; caspase robust z-score = -0.31; Outcome = inactive
SLC35G5: viability hit class = no change; caspase hit class = no change; viability robust z-score = -0.58; caspase robust z-score = 1.48; Outcome = inactive

Next part, starting with the last 2 of the part before.
B3GALT1 (beta-1,3-galactosyltransferase 1): viability hit class = no change; caspase hit class = no change; viability robust z-score = -0.46; caspase robust z-score = -0.31; Outcome = inactive
SLC35G5: viability hit class = no change; caspase hit class = no change; viability robust z-score = -0.58; caspase robust z-score = 1.48; Outcome = inactive
PLEKHF2 (pleckstrin homology and FYVE domain containing 2): viability hit class = no change; caspase hit class = no change; viability robust z-score = 0.84; caspase robust z-score = 0.3; Outcome = inactive
FADS1 (fatty acid desaturase 1): viability hit class = no change; caspase hit class = CA2 (caspase activation); viability robust z-score = 0.1; caspase robust z-score = 5.26; Outcome = active
BRME1 (break repair meiotic recombinase recruitment factor 1): viability hit class = no change; caspase hit class = no change; viability robust z-score = 0.03; caspase robust z-score = 2.21; Outcome = inactive
SLC10A5: viability hit class = no change; caspase hit class = no change; viability robust z-score = 0.16; caspase robust z-score = 0.26; Outcome = inactive
FRMD7 (FERM domain containing 7): viability hit class = no change; caspase hit class = no change; viability robust z-score = -0.86; caspase robust z-score = -0.38; Outcome = inactive
USF2 (upstream transcription factor 2, c-fos interacting): viability hit class = no change; caspase hit class = no change; viability robust z-score = -0.36; caspase robust z-score = 1.19; Outcome = inactive
MCTP1 (multiple C2 and transmembrane domain containing 1): viability hit class = no change; caspase hit class = no change; viability robust z-score = 0.66; caspase robust z-score = -0.3; Outcome = inactive
SEMA6C (semaphorin 6C): viability hit class = no change; caspase hit class = no change; viability robust z-score = 0.4; caspase robust z-score = -0.44; Outcome = inactive
ZNF33B (zinc finger protein 33B): viability hit class = no change; caspase hit class = no change; viability robust z-score = 0.7; caspase robust z-score = 0.63; Outcome = inactive
ARL17B (ARF like GTPase 17B): viability hit class = no change; caspase hit class = no change; viability robust z-score = -0.76; caspase robust z-score = 1.03; Outcome = inactive
DNAJA4 (DnaJ heat shock protein family (Hsp40) member A4): viability hit class = no change; caspase hit class = no change; viability robust z-score = 0.82; caspase robust z-score = -0.14; Outcome = inactive
